Assay results reported in the supplement of paper PMC4604168 (melanoma cell lines).
This is one part of the list. Many values rest on one well or one pass, so single values are uncertain.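 Cells were imaged in 1,536-well plates, and nuclei stained with an antibody against cleaved PARP were counted against all DNA-stained nuclei to give the apoptosis fraction. Screening doses were chosen to leave most cells alive, and resting and induced cleaved-PARP levels differ strongly between cell lines.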

Assays:
Experiment in all cases: cleaved PARP positive nuclei fraction relative to DMSO control; melanoma cells; higher = more apoptosis
Details in all cases: library dose: low library concentration; 72 h
WM115 = system: WM115
WM1716 = system: WM1716
WM1745 = system: WM1745
WM3526 = system: WM3526
WM3619 = system: WM3619
WM451Lu = system: WM451Lu

Compound	cleaved PARP positive nuclei fraction (WM115) [%]	cleaved PARP positive nuclei fraction (WM1716) [%]	cleaved PARP positive nuclei fraction (WM1745) [%]	cleaved PARP positive nuclei fraction (WM3526) [%]	cleaved PARP positive nuclei fraction (WM3619) [%]	cleaved PARP positive nuclei fraction (WM451Lu) [%]
COc1ccc(C2=N[C@@H](c3ccc(Cl)cc3)[C@@H](c3ccc(Cl)cc3)N2C(=O)N2CCNC(=O)C2)c(OC(C)C)c1 [Nutlin-3] + Nc1ccn([C@@H]2O[C@H](CO)[C@@H](O)C2(F)F)c(=O)n1 [gemcitabine] (first compound 0.1 µM, partner dose 0.0004 µM)	45.4	105	118	30.5	135	79.1
Cn1cnc2c(F)c(Nc3ccc(Br)cc3Cl)c(C(=O)NOCCO)cc21 [selumetinib] + O=C(Nc1ccccc1)c1cc([N+](=O)[O-])ccc1Cl [GW9662] (first compound 0.015 µM, partner dose 2 µM)	44.6	31.4	97	129	139	34.6
NC1(c2ccc(-c3nc4ccn5c(=O)[nH]nc5c4cc3-c3ccccc3)cc2)CCC1 + CCc1ccc(CCOc2ccc(CC3SC(=O)NC3=O)cc2)nc1 [pioglitazone] (first compound 0.4 µM, partner dose 2 µM)	103	36.6	90.5	129	90.2	73.6
COc1ccc(C2=N[C@@H](c3ccc(Cl)cc3)[C@@H](c3ccc(Cl)cc3)N2C(=O)N2CCNC(=O)C2)c(OC(C)C)c1 [Nutlin-3] + Nc1nc(F)nc2c1ncn2[C@@H]1O[C@H](CO)[C@@H](O)[C@@H]1O [fludarabine] (first compound 0.1 µM, partner dose 0.2 µM)	178	309	95.3	177	104	207
NC(=O)c1ccc(N(C(N)=O)c2c(F)cccc2F)nc1-c1ccc(F)cc1F + C=C(c1ccc(C(=O)O)cc1)c1cc2c(cc1C)C(C)(C)CCC2(C)C [Bexarotene] (first compound 0.4 µM, partner dose 2 µM)	65	70.1	98.6	50	106	97.4
Cn1sc(=O)n(Cc2ccccc2)c1=O + O=C(O)C(=O)Nc1sc2c(c1C(=O)O)CCNC2 [TCS401] (first compound 0.4 µM, partner dose 1.66667 µM)	78.9	44.6	91.3	140	192	38.2
C[C@@H](N)c1ccc(C(=O)Nc2ccnc3[nH]ccc23)cc1 + O=C(Nc1cccc(Cl)c1)Nc1ncc(CCNc2ncnc3ccsc23)s1 [SNS314] (first compound 0.4 µM, partner dose 0.0008 µM)	548	124	116	55.1	88.4	53.1
C[C@@H](N)c1ccc(C(=O)Nc2ccnc3[nH]ccc23)cc1 + C=CCNC1=C2C[C@@H](C)C[C@H](OC)[C@H](O)[C@@H](C)/C=C(\C)[C@H](OC(N)=O)[C@@H](OC)/C=C\C=C(/C)C(=O)NC(=CC1=O)C2=O [Tanespimycin] (first compound 0.4 µM, partner dose 0.002 µM)	120	135	121	39.5	84.7	99.3
CC1(C)CCC(c2ccc(Cl)cc2)=C(CN2CCN(c3ccc(C(=O)NS(=O)(=O)c4ccc(N[C@H](CCN5CCOCC5)CSc5ccccc5)c(S(=O)(=O)C(F)(F)F)c4)cc3)CC2)C1 + c1cc(-c2cnn3cc(-c4ccc(OCCN5CCCCC5)cc4)cnc23)ccn1 [Dorsomorphin] (first compound 0.4 µM, partner dose 0.4 µM)	194	110	817	87.8	105	83.8
NC1(c2ccc(-c3nc4ccn5c(=O)[nH]nc5c4cc3-c3ccccc3)cc2)CCC1 + C[C@@H]1CCN(C(=O)CC#N)C[C@@H]1N(C)c1ncnc2[nH]ccc12 [CP690550] (first compound 0.4 µM, partner dose 1 µM)	388	125	112	201	125	108
Cn1cnc2c(F)c(Nc3ccc(Br)cc3Cl)c(C(=O)NOCCO)cc21 [selumetinib] + CS(=O)(=O)CCNCc1ccc(-c2ccc3ncnc(Nc4ccc(OCc5cccc(F)c5)c(Cl)c4)c3c2)o1 [lapatinib] (first compound 0.015 µM, partner dose 0.8 µM)	177	57.7	90.6	158	148	55.5
CC1(C)CCC(c2ccc(Cl)cc2)=C(CN2CCN(c3ccc(C(=O)NS(=O)(=O)c4ccc(N[C@H](CCN5CCOCC5)CSc5ccccc5)c(S(=O)(=O)C(F)(F)F)c4)cc3)CC2)C1 + NC1(c2ccc(-c3nc4ccn5c(=O)[nH]nc5c4cc3-c3ccccc3)cc2)CCC1 [MK2206] (first compound 0.4 µM, partner dose 0.4 µM)	849	425	2490	107	133	214
NC(=O)c1ccc(N(C(N)=O)c2c(F)cccc2F)nc1-c1ccc(F)cc1F + CC(=O)O[C@@]12CO[C@@H]1C[C@H](O)[C@@]1(C)C(=O)[C@H](O)C3=C(C)[C@@H](OC(=O)[C@H](O)[C@@H](NC(=O)OC(C)(C)C)c4ccccc4)C[C@@](O)([C@@H](OC(=O)c4ccccc4)[C@H]21)C3(C)C [Docetaxel] (first compound 0.4 µM, partner dose 0.0001 µM)	111	54.7	158	182	144	177
NC1(c2ccc(-c3nc4ccn5c(=O)[nH]nc5c4cc3-c3ccccc3)cc2)CCC1 + O=c1cc(-c2cccc3c2Sc2ccccc2S3)oc(N2CCOCC2)c1 [KU55933] (first compound 0.4 µM, partner dose 1 µM)	301	54	95.6	221	70.5	89.7
CC1(C)CCC(c2ccc(Cl)cc2)=C(CN2CCN(c3ccc(C(=O)NS(=O)(=O)c4ccc(N[C@H](CCN5CCOCC5)CSc5ccccc5)c(S(=O)(=O)C(F)(F)F)c4)cc3)CC2)C1 + Oc1cc(-c2nc(-c3ccccc3)[nH]c2-c2ccncc2)ccc1Cl [L779450] (first compound 0.4 µM, partner dose 0.2 µM)	326	71.1	794	67.2	94.8	70.8
CCCCCCCCc1ccc(CCC(N)(CO)CO)cc1 [fingolimod] + CC(=O)O[C@@]12CO[C@@H]1C[C@H](O)[C@@]1(C)C(=O)[C@H](O)C3=C(C)[C@@H](OC(=O)[C@H](O)[C@@H](NC(=O)OC(C)(C)C)c4ccccc4)C[C@@](O)([C@@H](OC(=O)c4ccccc4)[C@H]21)C3(C)C [Docetaxel] (first compound 2 µM, partner dose 0.0001 µM)	109	126	147	70.1	105	233
CCN(CC)CCNC(=O)c1c(C)[nH]c(/C=C2\C(=O)Nc3ccc(F)cc32)c1C [sunitinib] + Clc1ccc(Nc2nnc(Cc3ccncc3)c3ccccc23)cc1 [vatalanib] (first compound 0.4 µM, partner dose 2 µM)	152	106	189	46.8	95	52.5
CC(=O)O[C@@]12CO[C@@H]1C[C@H](O)[C@@]1(C)C(=O)[C@H](O)C3=C(C)[C@@H](OC(=O)[C@H](O)[C@@H](NC(=O)OC(C)(C)C)c4ccccc4)C[C@@](O)([C@@H](OC(=O)c4ccccc4)[C@H]21)C3(C)C [Docetaxel] + OCCn1cc(-c2cnc3nnn(Cc4ccc5ncccc5c4)c3n2)cn1 [PF04217903] (first compound 0.0001 µM, partner dose 1 µM)	696	646	168	134	143	620
NC(=O)c1ccc(N(C(N)=O)c2c(F)cccc2F)nc1-c1ccc(F)cc1F + O=C(O)c1ccc(-c2c[nH]c3ncc(-c4ccccc4)cc23)cc1C1CCCC1 [GSK650394] (first compound 0.4 µM, partner dose 0.16 µM)	88.8	35.7	89.4	129	95.1	75.1
Cn1sc(=O)n(Cc2ccccc2)c1=O + Cc1cc(Nc2cc(N3CCN(C)CC3)nc(/C=C/c3ccccc3)n2)n[nH]1 [ENMD2076] (first compound 0.4 µM, partner dose 0.04 µM)	135	144	78.8	88	99.6	140
CC(=O)O[C@@]12CO[C@@H]1C[C@H](O)[C@@]1(C)C(=O)[C@H](O)C3=C(C)[C@@H](OC(=O)[C@H](O)[C@@H](NC(=O)OC(C)(C)C)c4ccccc4)C[C@@](O)([C@@H](OC(=O)c4ccccc4)[C@H]21)C3(C)C [Docetaxel] + O=S(=O)(c1ccccc1)N(CC(F)(F)F)c1ccc(C(O)(C(F)(F)F)C(F)(F)F)cc1 [T0901317] (first compound 0.0001 µM, partner dose 1.4 µM)	573	150	186	450	138	131
NC(=O)c1ccc(N(C(N)=O)c2c(F)cccc2F)nc1-c1ccc(F)cc1F + NCC(=O)Nc1ccc(-n2nc(C(F)(F)F)cc2-c2ccc3c(ccc4ccccc43)c2)cc1 [OSU03012] (first compound 0.4 µM, partner dose 1 µM)	136	165	102	90.8	101	32.9
CN(c1ncccc1CNc1nc(Nc2ccc3c(c2)CC(=O)N3)ncc1C(F)(F)F)S(C)(=O)=O + CN1CCN(c2ccc3nc(-c4c(N)c5c(F)cccc5[nH]c4=O)[nH]c3c2)CC1 [Dovitinib] (first compound 0.08 µM, partner dose 0.1 µM)	200	252	116	56.5	80.1	55.6

Look-ups from the list.
Value for COc1ccc(C2=N[C@@H](c3ccc(Cl)cc3)[C@@H](c3ccc(Cl)cc3)N2C(=O)N2CCNC(=O)C2)c(OC(C)C)c1 [Nutlin-3] + Nc1ccn([C@@H]2O[C@H](CO)[C@@H](O)C2(F)F)c(=O)n1 [gemcitabine] (first compound 0.1 µM, partner dose 0.0004 µM) under cleaved PARP positive nuclei fraction (WM3619) [%]: 135
Value for NC(=O)c1ccc(N(C(N)=O)c2c(F)cccc2F)nc1-c1ccc(F)cc1F + C=C(c1ccc(C(=O)O)cc1)c1cc2c(cc1C)C(C)(C)CCC2(C)C [Bexarotene] (first compound 0.4 µM, partner dose 2 µM) under cleaved PARP positive nuclei fraction (WM3526) [%]: 50
